From PMC8720590
These are yes or no findings as the source states them, for the method shown. In cells and extracts the contact can be indirect. Some binding calls cover weakened binding; strength is not graded here.

Chains of the proteins cited; added tags and fusions are not shown.
UniProt P43694: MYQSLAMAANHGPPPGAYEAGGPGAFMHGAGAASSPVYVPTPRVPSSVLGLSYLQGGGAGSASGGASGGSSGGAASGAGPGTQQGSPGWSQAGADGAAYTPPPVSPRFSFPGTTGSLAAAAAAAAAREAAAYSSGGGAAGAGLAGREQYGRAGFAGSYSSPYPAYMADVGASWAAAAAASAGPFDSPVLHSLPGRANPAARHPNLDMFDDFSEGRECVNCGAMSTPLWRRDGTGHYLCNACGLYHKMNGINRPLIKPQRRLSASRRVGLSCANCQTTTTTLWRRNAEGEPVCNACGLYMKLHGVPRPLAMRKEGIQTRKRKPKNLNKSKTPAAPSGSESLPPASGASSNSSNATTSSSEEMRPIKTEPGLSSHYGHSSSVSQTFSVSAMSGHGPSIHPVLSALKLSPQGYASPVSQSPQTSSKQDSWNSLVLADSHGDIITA

Biological target: SQSTM1/p62 (human (endogenous in HCT15 and HCT116)) (UniProt Q13501)
Assay: co-IP; endogenous p62 immunoprecipitated with anti-p62 antibody, GATA4 detected by immunoblot; CRC cells treated with chloroquine (25 uM, 24 h) in pH 7.4 or pH 6.5 medium; WIP lysis buffer

binding: binds
Substance: GATA4 (from UniProt P43694 1-442)
